pIC50: −log10 of the molar value. Some of these results come from one statement about several compounds together. For part of these data: At least one structure is not confirmed: it was looked up by name or label, or the drawing left a doubt.
Tested on: human DNF xenograft
Test: Mouse dermal neurofibroma (DNF) xenograft model, tumor burden reduction
Format: in vivo
Conditions: intralesional, twice weekly for 4 weeks; SCID mice with human DNF fragments; either criterion met

Molecule	“+” in tumor weight measurement or histological score of “+” or more
COc1cc([C@@H]2c3cc4c(cc3[C@H](O)[C@H]3COC(=O)[C@H]23)OCO4)cc(OC)c1OC [Podophyllotoxin]	+ (The result of a certain dose of the compound is considered to be “+” when the difference in tumor weight is statistically significant (p<0.05))
Nc1ncnc2c1ccn2[C@@H]1O[C@H](CO)[C@@H](O)[C@H]1O [Tubercidin]	+ (The result of a certain dose of the compound is considered to be “+” when the difference in tumor weight is statistically significant (p<0.05))
NC(=O)c1cn([C@@H]2O[C@H](CO)C(O)C2O)c2ncnc(N)c12 (stereo partly drawn) [Sangivamycin]	+ (The result of a certain dose of the compound is considered to be “+” when the difference in tumor weight is statistically significant (p<0.05))
S=P(N1CC1)(N1CC1)N1CC1 [Thiotepa]	+ (The result of a certain dose of the compound is considered to be “+” when the difference in tumor weight is statistically significant (p<0.05))

Tested on: NF1-related cell lines (NF1-deficient human MPNST cells, Nf1−/− mouse embryonic Schwann cells, Nf1- and p53-deficient mouse cell)
Test: Cell proliferation assay (ATPlite) in a panel of NF1 related cell lines
Format: cell-based
Conditions: several NF1-related cell lines, cultured 3 days, selection criterion IC50 equal or below 10 μM, read-out: IC50 (concentration required for inhibition of cell proliferation by 50%)
Protocol: Several physiologically relevant cells or cell lines were employed to measure compound potency in cell proliferation assays. These cells include: (1) NF1-deficient human malignant peripheral nerve sheath tumor (MPNST) cells, (2) Nf1^−/− mouse embryonic Schwann cells, and (3) Nf1- and p53-deficient mouse cell. […] All the other cells are grown in DMEM with 10% fetal bovine serum (FBS).
Various concentrations of each compound/agent to be tested were added to the growing media and the cells were then cultured for 3 days. […] Viable cells were measured by detecting luminescence generated from reaction of ATPlite solution and the ATP in the cells.

Molecule	pIC50
CC(=O)C=O [methylglyoxal, Methylglyoxal]	≥ 5.00
Hypericin	≥ 5.00

From patent publication US8211875B2, “Local treatment of neurofibromas” (Nexgenix Pharmaceuticals Inc, priority 2005, dated 2012)
